{"source": "PubChem BioAssay AID504467", "about": "(National Center for Advancing Translational Sciences (NCATS), 2011)", "note": "Out of some 330,000 compounds screened, about 7,700 (2.3%) were called active. The inconclusive results got no clear call from the source; some entries with a clear call stand among them for comparison. The call rests on the fitted dose curve; in most records, active means well fitted inhibition curve with a large enough effect; inconclusive means small, poorly fitted or top-dose-only effect, or effect the other way; inactive means flat fitted curve, though single readings scatter. Potencies beside an inconclusive call are fits to weak or partial responses and may not hold up. On the % scale 0 is the no-effect control and ±100 the full control effect; potency means the concentration at half of the fitted maximal effect.", "data": [{"assay": "qHTS screen for small molecules that inhibit ELG1-dependent DNA repair in human embryonic kidney (HEK293T) cells expressing luciferase-tagged ELG1; further: nearly all actives have a fitted effect of over 55% in size", "conditions": "HEK293T ELG1-luciferase reporter, luminescence, 16 h, DNA damage induced by 5-fluorouridine; activity change, negative = inhibition: at 46.1 µM (top of the series)", "procedure,_shortened": "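Luminescence from the luciferase reporter, measured 30 min after ONE-Glo reagent at room temperature, was the read-out. Beforehand, 2,000 cells per well were exposed for 16 hr at 37 °C to 5-fluorouridine together with compound or vehicle.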", "values": [{"smiles": "COc1ccc(/C=C/C(=O)N2CCN(S(=O)(=O)c3ccccc3Br)CC2)cc1OC", "Potency": "inconclusive: 8.2 µM [inhibitor, single point]"}, {"smiles": "CCn1c(CNc2ccc(F)cc2)nnc1SCC(=O)Nc1ccc(OC)cc1OC", "activity change, negative = inhibition": "inactive: -18.8%"}, {"smiles": "Cc1ccc(NC(=O)C2C3CC4OC(=O)C2C4C3)cc1Cl", "note": "(stereo unspecified)", "activity change, negative = inhibition": "inactive: 17.1%"}, {"smiles": "CC(NCC(O)c1ccc([N+](=O)[O-])cc1)C12CC3CC(CC(C3)C1)C2", "note": "(stereo unspecified)", "activity change, negative = inhibition": "inactive: -9.47%"}, {"smiles": "COc1ccccc1N1CCN(C(=O)CCNS(=O)(=O)c2cc(Br)cnc2N)CC1", "activity change, negative = inhibition": "inactive: 5.13%"}, {"smiles": "Cc1ccsc1C1Nc2ccccc2-c2nc3ccccc3n21", "note": "(stereo unspecified)", "Potency": "inconclusive: 20.6 µM [activator, partial curve]"}, {"smiles": "Cc1ccc(CSCC(=O)N/N=C/c2cccc(OC3CSC3)c2)cc1", "Potency": "inconclusive: 25.9 µM [inhibitor, partial curve]"}, {"smiles": "CCOC(=O)N1CCN(C(=O)c2cnn3c(C)c(Cc4ccc(C)cc4)c(C)nc23)CC1", "Potency": "inconclusive: 29.1 µM [inhibitor, single point]"}, {"smiles": "C/C(=N\\NC(=O)c1cccc(N/N=C(\\C)c2ccncc2)c1)c1ccncc1", "Potency": "inconclusive: 20.6 µM [inhibitor, single point]"}, {"smiles": "CC1(C)Oc2ccc(NC(=O)C3COc4ccccc4O3)cc2O1", "note": "(stereo unspecified)", "Potency": "inconclusive: 2.06 µM [activator, partial curve]"}, {"smiles": "CCOC(=O)Cc1cnc(NC(=O)CSc2nc(N)cc(N)n2)s1", "Potency": "inconclusive: 29.1 µM [inhibitor, single point]"}, {"smiles": "COc1ccc(C(=O)NNC(=O)C(Cc2ccc(O)cc2)NC(=O)c2ccccc2NC(=O)c2ccc(OC)cc2)cc1", "note": "(stereo unspecified)", "Potency": "inconclusive: 8.2 µM [inhibitor, partial curve]"}, {"smiles": "CSc1ccc(CN(C)C(=O)C2CCN(C(=O)Nc3ccccc3)CC2)cc1", "Potency": "inconclusive: 18.3 µM [inhibitor, single point]"}, {"smiles": "CC(=O)N1CCc2cc(S(=O)(=O)CCC(=O)N3CCN(c4cc(C)ccc4C)CC3)ccc21", "Potency": "inconclusive: 18.3 µM [inhibitor, partial curve, poor fit]"}, {"smiles": "CCCN(S(=O)(=O)c1ccc(OCC)cc1)S(=O)(=O)c1cccs1", "Potency": "inconclusive: 14.6 µM [inhibitor, single point]"}, {"smiles": "O=C(NCc1ccc(F)cc1)C1CCN(S(=O)(=O)c2ccc3c(c2)OCCCO3)CC1", "Potency": "inconclusive: 29.1 µM [inhibitor, single point]"}, {"smiles": "Cc1ccc(C(C)C)c(OCC(=O)Nc2ccc(N3CCOCC3)cc2N2CCOCC2)c1", "Potency": "active: 18.3 µM"}, {"smiles": "CCCNC(=O)COc1coc(CN2CCN(c3ccccc3OC)CC2)cc1=O", "activity change, negative = inhibition": "inactive: -0.953%"}, {"smiles": "NC(=S)NN=C1c2cc(OCCN3CCOCC3)ccc2-c2ccc(OCCN3CCOCC3)cc21", "Potency": "inconclusive: 1.46 µM [inhibitor, full curve, poor fit]"}, {"smiles": "O=C(O)CCS(=O)(=O)c1cccc2cccnc12", "activity change, negative = inhibition": "inactive: 11.9%"}, {"smiles": "CC1CCC(NC(=O)Cn2ncc3ccccc32)CC1", "note": "(stereo unspecified)", "Potency": "inconclusive: 11.6 µM [activator, partial curve]"}, {"smiles": "COc1ccc(NC(=O)CCNC(=O)c2ccco2)c(OC)c1", "activity change, negative = inhibition": "inactive: 19%"}, {"smiles": "Clc1cccc(Cl)c1COn1nnc2ccccc21", "Potency": "inconclusive: 18.4 µM [activator, partial curve]"}, {"smiles": "COc1ccc(NC(=S)N(Cc2ccc(N(C)C)cc2)Cc2ccco2)cc1", "Potency": "inconclusive: 18.4 µM [inhibitor, single point]"}, {"smiles": "CCOc1ccc(Nc2ncnc(N)n2)cc1", "Potency": "inconclusive: 29.1 µM [activator, single point]"}, {"smiles": "COc1ccc2[nH]c(=O)c(CN(Cc3ccccc3OC)Cc3nnnn3CC3CCCO3)cc2c1", "note": "(stereo unspecified)", "Potency": "active: 16.4 µM"}, {"smiles": "CCC(C)NC(=O)Cn1c(=O)n(-c2ccc(OC)cc2)c(=O)c2ccc(C(=O)NCc3ccc(C)cc3)cc21", "note": "(stereo unspecified)", "activity change, negative = inhibition": "inactive: -3.99%"}, {"smiles": "Cc1cc(C)c2[nH]c(=S)cc(C)c2c1", "Potency": "inconclusive: 29.1 µM [activator, single point]"}, {"smiles": "Cc1cc(C(=O)NCc2ccco2)c2ccccc2n1", "activity change, negative = inhibition": "inactive: -8.44%"}, {"smiles": "COc1ccc(CN(C)C(=O)Cn2cnc3c(NCc4ccccc4)ncnc32)cc1OC", "Potency": "inconclusive: 11.6 µM [inhibitor, partial curve]"}, {"smiles": "CCN(CC)c1ccc(N2C(=O)c3ccccc3C2=O)cc1", "Potency": "inconclusive: 6.51 µM [activator, partial curve]"}, {"smiles": "CN(CC(O)COc1ccc2ccccc2c1)C1CCCCC1", "note": "(stereo unspecified)", "activity change, negative = inhibition": "inactive: -20.1%"}, {"smiles": "O=c1c2ccccc2c(C=Nc2cccc(S(=O)(=O)NCc3ccco3)c2)c(O)n1-c1ccc(Cl)cn1", "Potency": "inconclusive: 2.91 µM [inhibitor, full curve, poor fit]"}, {"smiles": "NC(=O)c1ccsc1NC(=O)COc1ccccc1", "Potency": "inconclusive: 5.8 µM [activator, partial curve]"}, {"smiles": "Cc1cc(=O)[nH]c2n[nH]c(-c3ccccc3)c12", "Potency": "inconclusive: 16.4 µM [activator, partial curve]"}, {"smiles": "CC(Sc1nncn1C)C(=O)Nc1ccc(N2CCCCC2)cc1", "note": "(stereo unspecified)", "Potency": "inconclusive: 16.4 µM [activator, single point]"}]}]}
